# Measured values taken from PubChem BioAssay AID540276 (National Center for Advancing Translational Sciences (NCATS), 2011).
# Among all 300,000 compounds or so, about 5,400 (1.8%) were called active. Inconclusive means that the source gave no clear call. Such entries were picked first, then a sample of the others. Calls follow the shape of the full dose curve; tested in HEK293 cells. Potencies of inconclusive entries are doubtful fits and often do not repeat.
# Assay: qHTS for inhibitors of binding or entry into cells for Marburg Virus
# Details: Marburg virus pseudotyped entry inhibition, cell reporter; activity change, negative = inhibition: at 37.8 µM (top of the series) unless noted
# % is scaled to controls: 0 for no effect and ±100 for the full control effect; potency is read from the fitted curve at half-maximal effect.
Structure (SMILES),Potency,"activity change, negative = inhibition"
COC1=C(N)C(=O)c2nc(C)ccc2C1=O,"inconclusive: 14.1 µM [inhibitor, single point]",–
COc1cc(OC)cc(C(=O)Nc2ccc([N+](=O)[O-])cn2)c1,"inconclusive: 2.82 µM [inhibitor, single point]",–
CC1(C)CC(=O)C=C(NCCc2ccccc2)C1,–,inactive: 12.9% [at 46.1 µM]
CC(C)[C@@H](OCc1ccccc1)[C@H](C)/C=N/OC[C@@H](O)[C@H]1O[C@@H]2OC(C)(C)O[C@@H]2[C@H]1O,–,inactive: -4.6% [at 14.2 µM]
S=C(NCc1ccccc1)NCc1cccc(Cl)c1,–,inactive: -6.99% [at 46.1 µM]
CCCn1c(=O)n(C)c(=O)c2c(SCC(=O)NC34CC5CC(CC(C5)C3)C4)nc(CC(C)C)nc21,"inconclusive: 29.1 µM [inhibitor, single point]",–
Cc1nonc1OCCNCc1c(C(=O)N(C)C)nc2ccc(Cl)cn12,"inconclusive: 35.5 µM [inhibitor, single point]",–
Cc1ccc(NC(=O)c2ccccc2)s1,"inconclusive: 14.6 µM [inhibitor, single point]",–
Cc1cc(C)c2[nH]c(=O)c(C(c3nnnn3C(C)(C)C)N(Cc3ccco3)CC3CCCO3)cc2c1 (configuration not stated),"inconclusive: 29.1 µM [inhibitor, single point]",–
CCOC(=O)c1ccc(NC(=S)NC2CCCC2)cc1,–,inactive: 23.5%
N#CC(c1ccc([N+](=O)[O-])cc1)C(CC(=O)c1ccccc1)c1ccccc1 (configuration not stated),"inconclusive: 10 µM [inhibitor, partial curve, poor fit]",–
N#CC1(NC(=O)COc2ccc(S(=O)(=O)N3CCCC3)cc2[N+](=O)[O-])CCCCC1,"inconclusive: 35.5 µM [inhibitor, single point]",–
COC(=O)C1CN(C#N)N(c2ccc(Cl)cc2)C12c1ccccc1-c1ccccc12 (configuration not stated),"inconclusive: 11.2 µM [inhibitor, partial curve, poor fit]",–
O=C(Nc1ccc(C(=O)N2CCCCC2)cc1)c1ccccc1Cl,"inconclusive: 1 µM [inhibitor, single point]",–
O=C(CN1CCCc2ccccc21)NCCc1ccc(Cl)cc1,"inconclusive: 6.31 µM [activator, partial curve, poor fit]",–
O=C(COc1ccccc1-c1nc(-c2ccccc2)no1)Nc1cccc([N+](=O)[O-])c1,–,inactive: -7.02% [at 46.1 µM]
CCOc1cc2[nH]c(=S)n(CCCN(CC)CC)c(=O)c2cc1OCC,"inconclusive: 29.1 µM [inhibitor, single point]",–
COc1ccc(-c2cc(C(=O)NNC(=O)c3csc(N4CCOCC4)n3)c3ccccc3n2)cc1,"inconclusive: 11.2 µM [inhibitor, single point]",–
NC(=S)N/N=C/c1ncc(C(F)(F)F)cc1Cl,"inconclusive: 14.1 µM [inhibitor, partial curve, poor fit]",–
CCOc1ccccc1N(C(=O)c1snc(C(N)=O)c1N)C(C(=O)NC1CCCC1)c1ccco1 (configuration not stated),"inconclusive: 35.5 µM [inhibitor, single point]",–
C=CCNc1nc(N2CCCC2)nc2ccccc12,"inconclusive: 12.6 µM [inhibitor, partial curve, poor fit]",–
CCCNS(=O)(=O)c1ccc(CCC(=O)N2CCN(c3ccc(F)cc3)CC2)cc1,–,inactive: -33.2%

Structure (SMILES),Potency,"activity change, negative = inhibition"
CCOC(=O)c1c(-c2ccccc2)oc2ccc(N(C(C)=O)S(=O)(=O)c3ccc(CC)cc3)cc12,"inconclusive: 25.1 µM [inhibitor, partial curve, poor fit]",–
OCC[n+]1c2ccccc2nc2ccc(N3CCOCC3)cc21,–,inactive: -1.39% [at 14.2 µM]
COc1cc(Cl)c(C)cc1NC(=O)CSc1ccc(NC(C)=O)cc1,"inconclusive: 12.6 µM [inhibitor, single point]",–
CCc1ccccc1N(C(=O)c1snc(C(N)=O)c1N)C(C(=O)NCC1CCCO1)c1ccc(OC)c(OC)c1 (configuration not stated),"inconclusive: 6.51 µM [inhibitor, full curve, poor fit]",–
CCC(=O)N1CCc2cc(S(=O)(=O)NC(CC(C)C)C(=O)NCCc3ccccc3)ccc21 (configuration not stated),"inconclusive: 17.8 µM [inhibitor, partial curve, poor fit]",–
COC(=O)N/N=C/c1cc(Cl)c(OCc2ccccc2F)c(OC)c1,"inconclusive: 22.4 µM [inhibitor, single point]",–
Cc1cc2oc(=O)cc(CSc3nnc(-c4cccs4)o3)c2cc1C(C)C,"inconclusive: 35.5 µM [inhibitor, single point]",–
CC(C)c1nc(C(=O)N2CCc3c([nH]c4ccccc34)C2c2ccccn2)cs1 (configuration not stated),"inconclusive: 12.6 µM [inhibitor, partial curve, poor fit]",–
COc1ccc(N=C2SC(CC(=O)Nc3ccccc3OC)C(=O)N2Cc2ccco2)cc1 (configuration not stated),"inconclusive: 0.447 µM [inhibitor, full curve, poor fit]",–
Cc1ccc(N(C(=O)c2csnn2)C(C(=O)NC2CCCCC2)c2cccnc2)cc1C (configuration not stated),–,inactive: -14.1% [at 46.1 µM]
Cc1cccc(C(=O)OCC(=O)c2ccc3c(c2)NC(=O)CO3)c1,–,inactive: 5.7%
COC(=O)C1=C(C)N(C)C(C)=C(C(=O)OC)C1c1ccccc1C,–,inactive: 3.21%
CCCCCNC(=O)Cc1ccc(S(=O)(=O)N2CCOCC2)s1,"inconclusive: 35.5 µM [activator, single point]",–
CCc1ccc(C(C)NC(=O)c2cc(C)oc2C)cc1 (configuration not stated),"inconclusive: 29.1 µM [inhibitor, single point]",–
COc1ccccc1CCC(=O)Nc1cc(S(=O)(=O)N2CCCCC2)ccc1N1CCN(C)CC1,"inconclusive: 35.5 µM [inhibitor, single point]",–
Fc1cccc2sc(Nc3nc4cc5c(cc4s3)OCCO5)nc12,"inconclusive: 7.94 µM [inhibitor, partial curve, poor fit]",–
Cc1cc(SCC(=O)N(C)C2CCS(=O)(=O)C2)nc2c(C)cccc12 (configuration not stated),"inconclusive: 3.16 µM [inhibitor, partial curve, poor fit]",–
c1ccc2c(CNC3CCCCCC3)c[nH]c2c1,active: 13 µM,–
O=C(COC(=O)c1cc2ccccc2oc1=O)c1cccc([N+](=O)[O-])c1,"inconclusive: 0.112 µM [activator, full curve, poor fit]",–
CC(=O)/C(=N\Nc1ccccc1)Sc1cccc2cccnc12,–,inactive: -12.7%
Cc1cn([C@H]2C[C@@H](N=[N+]=[N-])[C@@H](CO)O2)c(=O)[nH]c1=O,"inconclusive: 6.31 µM [inhibitor, full curve]",–
CCc1cccc(NC(=O)C2CCCN(S(=O)(=O)c3c(C)[nH]c(=O)[nH]c3=O)C2)c1 (configuration not stated),inactive,–
COC1CCCN(Cc2cn(C)nc2-c2ccc(Oc3ccccc3)cc2)C1 (configuration not stated),"inconclusive: 25.1 µM [inhibitor, partial curve, poor fit]",–

# Molecules from the list above containing fluorine, in the order listed:
Structure (SMILES),Potency,"activity change, negative = inhibition"
NC(=S)N/N=C/c1ncc(C(F)(F)F)cc1Cl,"inconclusive: 14.1 µM [inhibitor, partial curve, poor fit]",–
CCCNS(=O)(=O)c1ccc(CCC(=O)N2CCN(c3ccc(F)cc3)CC2)cc1,–,inactive: -33.2%
COC(=O)N/N=C/c1cc(Cl)c(OCc2ccccc2F)c(OC)c1,"inconclusive: 22.4 µM [inhibitor, single point]",–
Fc1cccc2sc(Nc3nc4cc5c(cc4s3)OCCO5)nc12,"inconclusive: 7.94 µM [inhibitor, partial curve, poor fit]",–

# More structures follow:

Structure (SMILES),Potency,"activity change, negative = inhibition"
COCC(C)n1c(C)cc(C(=O)COC(=O)c2c(NC(C)=O)sc(C)c2C)c1C (configuration not stated),active: 2.59 µM,–
Cc1cccc(CNCCc2c[nH]c3ccccc23)c1,active: 10 µM,–
Cc1ccc(C(=O)Nc2ccc3c(c2)OCCO3)cc1,"inconclusive: 2.24 µM [inhibitor, full curve, poor fit]",–
O=C(NC1CCN(Cc2ccccc2)CC1)c1ccc(N2CC3CC(C2)c2cccc(=O)n2C3)c([N+](=O)[O-])c1 (configuration not stated),"inconclusive: 35.5 µM [inhibitor, single point]",–
COc1ccccc1NC(=O)Nc1cc(C(C)(C)C)nn1C,–,inactive: -8.95% [at 46.1 µM]
O=C(CN1C(=O)NC2(CCCC2)C1=O)N1CCN(S(=O)(=O)c2cccc(F)c2)CC1,–,inactive: -2.41%
Cc1cc(C(=O)NP(=O)(N2CCOCC2)N2CCOCC2)c(C)n1-c1ccc(N(C)C)cc1,"inconclusive: 3.55 µM [inhibitor, partial curve, poor fit]",–
CC(O)c1nc2ccccc2n1CCCCOc1ccccc1 (configuration not stated),"inconclusive: 11.2 µM [inhibitor, partial curve, poor fit]",–
Cn1c2c(c(=O)n(C)c1=O)[C@@](NC(=O)C(C)(C)C)(C(F)(F)F)C(=O)N2,–,inactive: -2.77%
Cc1nnc(SCC(=O)NC(C)(C)C)n1C1CCCCC1,–,inactive: 20.9%
Cc1ccc(NC(=O)CSc2ccc(-c3ccccn3)nn2)cc1,–,inactive: -29.3% [at 46.1 µM]
CCc1ccc(/C=N/NC(=O)c2ccccn2)cc1,"inconclusive: 1 µM [inhibitor, full curve, poor fit]",–
O=c1[nH]c2cc3c(cc2cc1CN(Cc1cccnc1)C(=S)NCc1ccco1)OCO3,"inconclusive: 0.891 µM [inhibitor, full curve, poor fit]",–
COc1cccc2c1cc1c(=O)n(CC(=O)NCc3ccc(C)o3)nc(C)n12,–,inactive: 22.7% [at 46.1 µM]
COc1cccc(C(=O)Nc2cc3c(cc2Br)OCCCO3)c1,"inconclusive: 1.26 µM [activator, partial curve]",–
Cc1ccc2[nH]c(=O)c(C(c3nnnn3CC3CCCO3)N3CCCc4ccccc43)cc2c1 (configuration not stated),"inconclusive: 23.1 µM [inhibitor, single point]",–
O=C(c1ccc([N+](=O)[O-])o1)N1CCN(c2nc3c(F)cc(F)cc3s2)CC1,"inconclusive: 35.5 µM [inhibitor, single point]",–
O=C(C(Sc1ccccc1)c1ccccc1)N1CCN(c2ccccc2F)CC1 (configuration not stated),"inconclusive: 22.4 µM [inhibitor, single point]",–
Cc1ccc(C(=O)Nc2ccn(Cc3ccc(F)cc3)n2)o1,–,inactive: -3%
CCN(CC)c1ccc(NC(=S)NCC2CCCO2)cc1 (configuration not stated),"inconclusive: 31.6 µM [activator, single point]",–
O=c1oc2ccccc2c(Nc2ccccc2)c1CN1CCCCC1,"inconclusive: 4.47 µM [inhibitor, full curve, poor fit]",–
